According to article PMC8162949:
These are yes or no findings as the source states them, for the method shown.

Target: haloalkane dehalogenase DhaA115 (Rhodococcus rhodochrous) (UniProt P0A3G2)
Experiment: SAXS; DhaA115 in solution at 8.5, 6.3, 4.3 and 2.2 mg ml^-1, 293 K, 41 mM K2HPO4, 9 mM KH2PO4, pH 7.5; curves of the concentration series merged; fitted against the crystal monomer (chi^2 = 1.25) and the crystal dimer (chi^2 = 50.3); both purified

With “haloalkane dehalogenase DhaA115 (from UniProt P0A3G2 1-293) (enzyme)” the binding was “no binding (tested: 8.5, 6.3, 4.3 and 2.2 mg ml^-1)”.
